{"source": "paper PMC7819943", "about": "“Rice protein-binding microarrays: a tool to detect cis-acting elements near promoter regions in rice”", "note": "The list shows a part of the results."}
{"biological_target": "T1, OsSMF1 (Oryza sativa, UniProt Q6ZLB0 1-436)", "T1 sequence": "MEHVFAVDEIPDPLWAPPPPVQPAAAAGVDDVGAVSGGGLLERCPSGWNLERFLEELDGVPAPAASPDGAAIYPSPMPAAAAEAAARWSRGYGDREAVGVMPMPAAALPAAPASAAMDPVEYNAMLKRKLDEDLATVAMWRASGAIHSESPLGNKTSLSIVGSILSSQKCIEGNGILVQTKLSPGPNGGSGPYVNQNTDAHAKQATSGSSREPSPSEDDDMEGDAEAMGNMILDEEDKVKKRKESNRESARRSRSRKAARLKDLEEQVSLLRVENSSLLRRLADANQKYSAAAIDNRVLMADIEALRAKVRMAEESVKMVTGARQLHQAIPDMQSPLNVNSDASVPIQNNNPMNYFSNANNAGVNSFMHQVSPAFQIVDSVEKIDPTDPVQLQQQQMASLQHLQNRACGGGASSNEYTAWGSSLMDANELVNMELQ", "assay": "protein-binding microarray (RPBM); PBS, 2% BSA, 51.3 ng/ul salmon testes DNA, 50 uM zinc acetate, 200 nM TF, 25 C, 1 h; high values mean tight binding", "settings": "protein: recombinant; tags: N-terminal polyhistidine and DsRed monomer fusion (pET32a); chain copies: 2; label: CyDye5-dUTP incorporated in the synthesized complementary strand; 3' TTTTT single-stranded linker to array surface; dsDNA, one strand shown", "procedure,_shortened": "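In PBS with 2% BSA, salmon testes DNA and 50 µM zinc acetate, 200 nM protein was incubated on a custom Agilent array at 25 °C for 1 h and then washed off. The array had been made double-stranded by primer extension with Cy5-dUTP and blocked with 2% BSA. The proteins were transcription factors fused N-terminally to polyhistidine and DsRed, expressed in E. coli BL21-CodonPlus and purified on Ni–NTA. The binding signal is per-feature fluorescence intensity (arbitrary units) from an Axon 4000B scanner.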"}
{"sequence": "CATATAAATTGACAACTTCTACTTAAACCTGACATGTGGGCGGAGTCACCTAGTGCAG", "binding signal": "3190 fluorescence intensity (a.u.)"}
{"sequence": "AGAAAAGCAGCAGACTACGAATCTGTAGCCAGCTGCAGCACGGAGTCACCTAGTGCAG", "binding signal": "22600 fluorescence intensity (a.u.)"}
{"sequence": "CGGTACCGCCGCCGACGCCGCACTTCCCCTCGCGCCGCGCCGGAGTCACCTAGTGCAG", "binding signal": "3480 fluorescence intensity (a.u.)"}
{"sequence": "CCCTTCTCCACCATCAACTTCGCCACTCGTCGGAGCGCCGCGGAGTCACCTAGTGCAG", "binding signal": "3630 fluorescence intensity (a.u.)"}
{"sequence": "GCTCTGCTGTACCCCGCCACGCCGCTCCCTCGCAGTCACCCGGAGTCACCTAGTGCAG", "binding signal": "3260 fluorescence intensity (a.u.)"}
{"sequence": "TGATTGGTTCTGACACGACATAGATGCATACTGATATGCTCGGAGTCACCTAGTGCAG", "binding signal": "13800 fluorescence intensity (a.u.)"}
{"sequence": "CCGTATTATTTAATTCATTCAAAGTACACGTACGAGAAAACGGAGTCACCTAGTGCAG", "binding signal": "3710 fluorescence intensity (a.u.)"}
{"sequence": "GCTGGCTACTACTACTACTTGCACTCCACGCCCTCATCCCCGGAGTCACCTAGTGCAG", "binding signal": "3150 fluorescence intensity (a.u.)"}
{"sequence": "CTCAACAGTATGTTCTTAATTCTGATAACGTGGCTAGTGTCGGAGTCACCTAGTGCAG", "binding signal": "4780 fluorescence intensity (a.u.)"}
{"sequence": "TCTCTGCAATTGTCGATCTTTATCACGCGCTCCACCCTATCGGAGTCACCTAGTGCAG", "binding signal": "4260 fluorescence intensity (a.u.)"}
{"sequence": "CCGAACCGGGACTAGTTTGACTCAACACGTGGGGTCAAACCGGAGTCACCTAGTGCAG", "binding signal": "4600 fluorescence intensity (a.u.)"}
{"sequence": "GATCGTACATGTTCACATAAACACCCACGACACTACCCTACGGAGTCACCTAGTGCAG", "binding signal": "18400 fluorescence intensity (a.u.)"}
{"sequence": "CCTTGGCCTCGAACTCTTCAGCCGCTGACGGCATCCTTACCGGAGTCACCTAGTGCAG", "binding signal": "3550 fluorescence intensity (a.u.)"}
{"sequence": "TCATTCCGTCAAGGGCTCGCCGTCTCTCAGCACCGGCGTACGGAGTCACCTAGTGCAG", "binding signal": "38500 fluorescence intensity (a.u.)"}
{"sequence": "CTCTAGAAATCACTGTTGCCAAATCAGCTGATCGGTCTGCCGGAGTCACCTAGTGCAG", "binding signal": "4040 fluorescence intensity (a.u.)"}
{"sequence": "CTTGGCAAAGATAATCCTATGTCAGCAAAGCTGCAAGTTCCGGAGTCACCTAGTGCAG", "binding signal": "6070 fluorescence intensity (a.u.)"}
{"sequence": "AGAACATATATACTGCATCATCGTTTGCTCTTTAACTTATCGGAGTCACCTAGTGCAG", "binding signal": "3220 fluorescence intensity (a.u.)"}
{"sequence": "GGAGGAGACGTCATGGTAGATGAGTGTTGCATATCCCGTTCGGAGTCACCTAGTGCAG", "binding signal": "3920 fluorescence intensity (a.u.)"}
{"sequence": "ACCAGGCTGACCGGCCGTCTCGTGGCAAATTGGGCCGAGTCGGAGTCACCTAGTGCAG", "binding signal": "3400 fluorescence intensity (a.u.)"}
{"sequence": "AGCTCGACGGCGCCGCCCGAACCTTGCCAGGCGTGGATCTCGGAGTCACCTAGTGCAG", "binding signal": "3250 fluorescence intensity (a.u.)"}
{"sequence": "ATACAATACCCGATGTGACACGCCAAAACTTCATACTCTTCGGAGTCACCTAGTGCAG", "binding signal": "26200 fluorescence intensity (a.u.)"}
{"sequence": "TCCATGAGTCAAGATGAAGCCAAGAAAATCATCAGCTGATCGGAGTCACCTAGTGCAG", "binding signal": "3240 fluorescence intensity (a.u.)"}
{"sequence": "ATCGACCCTATTTGCGAGATTTGATAGTGTGGCATCCTTTCGGAGTCACCTAGTGCAG", "binding signal": "3320 fluorescence intensity (a.u.)"}
{"sequence": "GGATTACTACGGCGGCCATGGCGCCGACGGTTCAGCGTCCCGGAGTCACCTAGTGCAG", "binding signal": "22000 fluorescence intensity (a.u.)"}
{"sequence": "CACCTCCCCTTCCCATCCCAACCGGCCAACCCTCCCCACCCGGAGTCACCTAGTGCAG", "binding signal": "13900 fluorescence intensity (a.u.)"}
{"sequence": "CCCTCGTCCAGGCCCGCTGGAAGTTCGGTGAGTCAGAAGTCGGAGTCACCTAGTGCAG", "binding signal": "6440 fluorescence intensity (a.u.)"}
{"sequence": "CAAATTCGAACTTACGTCATCATCATCCATCCACAGACCTCGGAGTCACCTAGTGCAG", "binding signal": "12600 fluorescence intensity (a.u.)"}
{"sequence": "ACATTTATACTCTAAGGGTTAAAACTGGAGACGGAGGAAGCGGAGTCACCTAGTGCAG", "binding signal": "29100 fluorescence intensity (a.u.)"}
{"sequence": "CAGCTGGGAGCTCGGAGTTCTCCAGTCAGGTGGAGACACGCGGAGTCACCTAGTGCAG", "binding signal": "3370 fluorescence intensity (a.u.)"}
{"sequence": "GTGTGAAAGGGCAATTTCAAGGGGTGAGGGGTTCGCGTGGCGGAGTCACCTAGTGCAG", "binding signal": "3260 fluorescence intensity (a.u.)"}
{"sequence": "TATTTCTATATATAAAGTTTACACGTGCAAAGTTTTATTTCGGAGTCACCTAGTGCAG", "binding signal": "4230 fluorescence intensity (a.u.)"}
{"sequence": "AAGTCCTCTTCCTCTTCATCATAATCGTCACCCACGCGCCCGGAGTCACCTAGTGCAG", "binding signal": "3220 fluorescence intensity (a.u.)"}
{"sequence": "AGAAGCAAGCAGACGCCACGCCACGGAAGAATCTAGAACCCGGAGTCACCTAGTGCAG", "binding signal": "3450 fluorescence intensity (a.u.)"}
{"sequence": "GATGGCATCCCCGAGTGATTGAAAGAGTTTCCTCTCTCTTCGGAGTCACCTAGTGCAG", "binding signal": "37500 fluorescence intensity (a.u.)"}
{"sequence": "ACGCCCACGACATCGAAGCAAAGCCCCGCGGTTTACGTGCCGGAGTCACCTAGTGCAG", "binding signal": "3410 fluorescence intensity (a.u.)"}
{"sequence": "AAAGCCAGAACACAACTAAATCACATCATGAAACATTTTGCGGAGTCACCTAGTGCAG", "binding signal": "30400 fluorescence intensity (a.u.)"}
{"sequence": "GCCATGGGCCCCACCTGGCGCGTGTCCGCTATAAATACCCCGGAGTCACCTAGTGCAG", "binding signal": "3390 fluorescence intensity (a.u.)"}
{"sequence": "TCCTTCACCCACCGATCGATTCGATCTGACCGCGCCGCCGCGGAGTCACCTAGTGCAG", "binding signal": "3360 fluorescence intensity (a.u.)"}
{"sequence": "TCATGTTGTGACAGCATCTTTGAAAACAAGAAATTGCTCACGGAGTCACCTAGTGCAG", "binding signal": "33700 fluorescence intensity (a.u.)"}
{"sequence": "TGTTGATGGCGTCATTATTTACATGGTATGGTGCATTTGGCGGAGTCACCTAGTGCAG", "binding signal": "14600 fluorescence intensity (a.u.)"}
{"sequence": "GTAAGATGACTCTGTAGTTGGCTATGTCCACACCAGGCACCGGAGTCACCTAGTGCAG", "binding signal": "3620 fluorescence intensity (a.u.)"}
{"sequence": "TACTTAACGGTTTCTGTCTTCTTTTGGTAGGCCCTCGCTGCGGAGTCACCTAGTGCAG", "binding signal": "3520 fluorescence intensity (a.u.)"}
